Assay results taken from US20080207538A1, “Enhanced Production of Functional Proteins From Defective Genes” (priority 2004, published 2008).
For at least one compound, name, drawing or mass did not settle the structure.

System: atm promoter
Experiment: cell-based screen for atm promoter enhancing agents (atm/pA3LUC dual luciferase, 293T cells)
Set-up: species or system human
Settings: transiently transfected 293T cells; firefly/renilla luciferase
Description: Plasmid construction. The wild type human fibroblast cell line GM02037 (Coriell Cell Repositories, NJ) was used as the DNA template for atm promoter amplification. In brief, the Qiagen Blood & Cell Culture DNA Mini kit was used to purify genomic DNA. ATM gene promoter primers, which were used to amplify the desired fragment DNA, were designed based on the sequence in Genebank. The forward primer sequence employed was […] (SEQ ID NO:1) and the reverse primer was GCCACGGGAGGAGGCGAG (SEQ ID NO:2). PCR was carried out using the Roche Expand High Fidelity PCR system. […]
Transfections were performed using GeneJammer reagent (Stratagene) based on the protocol from the manufacturer. […] The cells were subsequently lysed and promoter activity/nonsense suppression efficiency then assessed via the dual luciferase assay.
Dual luciferase assay. […] Luminescence was determined with a Molecular Devices Lmax 96 well plate luminometer. Light emission was measured after each of the 100 μL luminescence substrates and/or stop solutions were injected. ATM promoter activity was calculated by the ratio of relative light units of flash (firefly) to glow (renilla) luminescence in each well, which was compared with control wells (cultured only in medium with plasmid but no drug treatment) in each plate. […]

Q: For `CC1COc2c(N3CCN(C)CC3)c(F)cc3c(=O)c(C(=O)O)cn1c23` (stereo not shown) [Ofloxacin, ofloxacin], which “activation of the atm promoter” value is on record?
A: activate the atm promoter
